This is one part of the list. Most of these values are background signal.
Key:
Experiment in all cases: fluorescence intensity of antibody binding to polysaccharide-coupled beads; higher = stronger binding
[1] = target: pneumococcal polysaccharide Pn22A
[2] = target: pneumococcal polysaccharide Pn22F
[3] = target: pneumococcal polysaccharide Pn23A
[4] = target: pneumococcal polysaccharide Pn23B
[5] = target: pneumococcal polysaccharide Pn23F
[6] = target: pneumococcal polysaccharide Pn24A
[7] = target: pneumococcal polysaccharide Pn24B
[8] = target: pneumococcal polysaccharide Pn24F
[9] = target: pneumococcal polysaccharide Pn25A
[10] = target: pneumococcal polysaccharide Pn25F
[11] = target: pneumococcal polysaccharide Pn27
[12] = target: pneumococcal polysaccharide Pn28A
[13] = antibody concentration 81.7561 ng/mL
[14] = antibody concentration 437.17 ng/mL
[15] = antibody concentration 2337.65 ng/mL
[16] = antibody concentration 12500 ng/mL
[17] = antibody concentration 0.1 ng/mL
[18] = antibody concentration 0.534724 ng/mL
[19] = antibody concentration 2.8593 ng/mL
[20] = antibody concentration 15.2894 ng/mL

B1: 4-80.2 (protein)
chain 1: QVQLQESGPGLVKPSETLSLTCAVSGDSFSSYWWSWIRQPPGKGLEWIGEINGNVGSTNYNPSLKSRVTISKDASKNQFSLKLSSVTAADTAVYYCARYKEYWGQGVLVTVSS
chain 2: DVVMTQSPLSLPITPGQPASISCRSSQSLVHSNGNTYLSWYQQKPGQPPRRLIYEVSNRDSGVPDRFSGSGAGTDFTLKISRVEAEDVGVYYCGQGTHLPYSFGQGTKVEIK
[1]; [13]
  fluorescence intensity: 20.5 MFI
[1]; [14]
  fluorescence intensity: 22 MFI
[1]; [15]
  fluorescence intensity: 25 MFI
[1]; [16]
  fluorescence intensity: 32.8 MFI
[2]; [17]
  fluorescence intensity: 32.5 MFI
[2]; [18]
  fluorescence intensity: 32.5 MFI
[2]; [19]
  fluorescence intensity: 31 MFI
[2]; [20]
  fluorescence intensity: 33 MFI
[2]; [13]
  fluorescence intensity: 33.2 MFI
[2]; [14]
  fluorescence intensity: 30 MFI
[2]; [15]
  fluorescence intensity: 33.5 MFI
[2]; [16]
  fluorescence intensity: 36 MFI
[3]; [17]
  fluorescence intensity: 24.8 MFI
[3]; [18]
  fluorescence intensity: 27.5 MFI
[3]; [19]
  fluorescence intensity: 29 MFI
[3]; [20]
  fluorescence intensity: 25.5 MFI
[3]; [13]
  fluorescence intensity: 27 MFI
[3]; [14]
  fluorescence intensity: 27.2 MFI
[3]; [15]
  fluorescence intensity: 36.5 MFI
[3]; [16]
  fluorescence intensity: 45.5 MFI
[4]; [17]
  fluorescence intensity: 30 MFI
[4]; [18]
  fluorescence intensity: 30.5 MFI
[4]; [19]
  fluorescence intensity: 31.2 MFI
[4]; [20]
  fluorescence intensity: 30 MFI
[4]; [13]
  fluorescence intensity: 31 MFI
[4]; [14]
  fluorescence intensity: 34.8 MFI
[4]; [15]
  fluorescence intensity: 32.2 MFI
[4]; [16]
  fluorescence intensity: 35.2 MFI
[5]; [17]
  fluorescence intensity: 18.8 MFI
[5]; [18]
  fluorescence intensity: 17.5 MFI
[5]; [19]
  fluorescence intensity: 18.5 MFI
[5]; [20]
  fluorescence intensity: 18.5 MFI
[5]; [13]
  fluorescence intensity: 18.8 MFI
[5]; [14]
  fluorescence intensity: 17.5 MFI
[5]; [15]
  fluorescence intensity: 19.5 MFI
[5]; [16]
  fluorescence intensity: 24 MFI
[6]; [17]
  fluorescence intensity: 17.2 MFI
[6]; [18]
  fluorescence intensity: 15 MFI
[6]; [19]
  fluorescence intensity: 17 MFI
[6]; [20]
  fluorescence intensity: 15.5 MFI
[6]; [13]
  fluorescence intensity: 17.5 MFI
[6]; [14]
  fluorescence intensity: 14.5 MFI
[6]; [15]
  fluorescence intensity: 17.5 MFI
[6]; [16]
  fluorescence intensity: 19.2 MFI
[7]; [17]
  fluorescence intensity: 18.5 MFI
[7]; [18]
  fluorescence intensity: 17.5 MFI
[7]; [19]
  fluorescence intensity: 19.8 MFI
[7]; [20]
  fluorescence intensity: 17.2 MFI
[7]; [13]
  fluorescence intensity: 18 MFI
[7]; [14]
  fluorescence intensity: 19.8 MFI
[7]; [15]
  fluorescence intensity: 22 MFI
[7]; [16]
  fluorescence intensity: 32 MFI
[8]; [17]
  fluorescence intensity: 15.8 MFI
[8]; [18]
  fluorescence intensity: 19.8 MFI
[8]; [19]
  fluorescence intensity: 17.8 MFI
[8]; [20]
  fluorescence intensity: 15 MFI
[8]; [13]
  fluorescence intensity: 17.5 MFI
[8]; [14]
  fluorescence intensity: 19.8 MFI
[8]; [15]
  fluorescence intensity: 22.8 MFI
[8]; [16]
  fluorescence intensity: 30 MFI
[9]; [17]
  fluorescence intensity: 25 MFI
[9]; [18]
  fluorescence intensity: 25 MFI
[9]; [19]
  fluorescence intensity: 24 MFI
[9]; [20]
  fluorescence intensity: 24 MFI
[9]; [13]
  fluorescence intensity: 24 MFI
[9]; [14]
  fluorescence intensity: 24 MFI
[9]; [15]
  fluorescence intensity: 26 MFI
[9]; [16]
  fluorescence intensity: 28 MFI
[10]; [17]
  fluorescence intensity: 31.5 MFI
[10]; [18]
  fluorescence intensity: 32.2 MFI
[10]; [19]
  fluorescence intensity: 29.5 MFI
[10]; [20]
  fluorescence intensity: 31 MFI
[10]; [13]
  fluorescence intensity: 31 MFI
[10]; [14]
  fluorescence intensity: 31.5 MFI
[10]; [15]
  fluorescence intensity: 32 MFI
[10]; [16]
  fluorescence intensity: 38 MFI
[11]; [17]
  fluorescence intensity: 18.5 MFI
[11]; [18]
  fluorescence intensity: 18.5 MFI
[11]; [19]
  fluorescence intensity: 18 MFI
[11]; [20]
  fluorescence intensity: 18 MFI
[11]; [13]
  fluorescence intensity: 17.2 MFI
[11]; [14]
  fluorescence intensity: 19 MFI
[11]; [15]
  fluorescence intensity: 20 MFI
[11]; [16]
  fluorescence intensity: 43.5 MFI
[12]; [17]
  fluorescence intensity: 28 MFI
[12]; [18]
  fluorescence intensity: 27.5 MFI
[12]; [19]
  fluorescence intensity: 26 MFI
[12]; [20]
  fluorescence intensity: 26 MFI
[12]; [13]
  fluorescence intensity: 27.5 MFI
[12]; [14]
  fluorescence intensity: 28.5 MFI

Reference: the supplement of paper PMC11438910
